These are yes or no findings as the source states them, for the method shown. Binding seen in cells or lysates may run through a third protein. Some binding calls cover weakened binding; strength is not graded here.
Molecular target: T1, E2F transcription factor 7 (E2F7), endogenous (human (endogenous in HONE-1 and SUNE-1)) (UniProt Q96AV8)
T1 sequence: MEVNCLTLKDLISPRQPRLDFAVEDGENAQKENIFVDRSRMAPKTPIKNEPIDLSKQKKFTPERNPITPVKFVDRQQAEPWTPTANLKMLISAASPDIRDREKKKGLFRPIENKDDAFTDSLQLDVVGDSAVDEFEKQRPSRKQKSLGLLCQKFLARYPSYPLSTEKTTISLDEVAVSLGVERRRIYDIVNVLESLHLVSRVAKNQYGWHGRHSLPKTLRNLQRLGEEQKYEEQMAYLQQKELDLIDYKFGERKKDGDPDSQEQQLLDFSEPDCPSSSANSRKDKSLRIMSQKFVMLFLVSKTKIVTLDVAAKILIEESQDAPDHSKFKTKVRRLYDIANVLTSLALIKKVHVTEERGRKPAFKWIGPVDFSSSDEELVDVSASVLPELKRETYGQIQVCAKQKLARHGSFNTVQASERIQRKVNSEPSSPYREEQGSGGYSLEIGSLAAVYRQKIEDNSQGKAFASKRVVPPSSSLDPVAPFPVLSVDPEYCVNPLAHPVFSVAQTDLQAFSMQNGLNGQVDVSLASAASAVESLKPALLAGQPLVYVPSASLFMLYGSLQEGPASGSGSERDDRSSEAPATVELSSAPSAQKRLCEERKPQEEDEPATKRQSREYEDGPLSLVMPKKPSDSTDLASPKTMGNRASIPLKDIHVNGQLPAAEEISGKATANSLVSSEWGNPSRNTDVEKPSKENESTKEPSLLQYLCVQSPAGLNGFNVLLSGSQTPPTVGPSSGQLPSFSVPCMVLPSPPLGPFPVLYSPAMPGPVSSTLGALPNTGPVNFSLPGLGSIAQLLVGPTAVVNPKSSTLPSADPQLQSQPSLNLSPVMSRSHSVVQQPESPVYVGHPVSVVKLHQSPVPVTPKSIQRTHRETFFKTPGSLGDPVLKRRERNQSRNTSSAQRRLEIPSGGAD
Experiment: co-IP; anti-E2F7 antibodies or normal rabbit IgG, endogenous proteins in HONE-1 and SUNE-1 lysates, Western blotting

The chains behind the UniProt entries cited, without tags or fusion partners.
UniProt Q13951: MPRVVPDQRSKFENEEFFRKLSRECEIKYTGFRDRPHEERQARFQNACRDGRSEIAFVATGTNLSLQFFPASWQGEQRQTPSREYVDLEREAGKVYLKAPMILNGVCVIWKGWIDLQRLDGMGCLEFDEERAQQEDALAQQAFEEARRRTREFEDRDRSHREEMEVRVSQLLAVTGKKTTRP

binding: binds
Substance: Core-binding factor subunit beta (CBFB), endogenous (from UniProt Q13951 1-182)

From publication PMC10235437
